Earlier results as cited in patent US12172974B2 (Biohaven Pharmaceutical Holding Company Ltd., priority 2012, dated 2024).
At least one compound was matched to its structure with a doubt left.

System: Metastatic melanoma
Settings: cited from earlier work

CN(C)/N=N/c1[nH]cnc1C(N)=O [dacarbazine]
median progression-free enhancement of survival time: 1.5 months
